According to PubChem BioAssay AID540256 (National Center for Advancing Translational Sciences (NCATS), 2011):
Among all 300,000 compounds or so, about 3,700 (1.2%) were called active. Inconclusive results, whose numbers are uncertain, are shown with a selection of clear calls. Calls come from the whole dose curve; tested in HEK293 cells. A potency beside an inconclusive call is a rough fit, not a confirmed value.

assay: qHTS for Inhibitors of binding or entry into cells for Lassa Virus; conditions: Lassa virus pseudotype entry inhibition, cell reporter; activity change, negative = inhibition: at 37.9 µM (top of the series) unless noted; note: nearly all actives have a fitted effect of over 50% in size
% is set by controls: 0 for no effect and ±100 for the full control effect; potency is the fitted concentration of half-maximal effect.

Structure (SMILES) | activity change, negative = inhibition | Potency
COc1cc(OC)cc(C(=O)NCC(=O)Nc2ccc(-c3ccccc3)cc2)c1 | inactive: -27.1% [at 46.1 µM] | 
N#Cc1c(C#N)c(-c2ccccc2)n(-c2ccccc2)c1N |  | inconclusive: 7.94 µM [inhibitor, partial curve, poor fit]
O=C(CN1CCCCC1)NNC(=O)c1cccc(Br)c1 | inactive: -10.5% | 
Cc1ccccc1Nc1c(-c2ccc(Cl)cc2)nc2c(C)cccn12 | inactive: 9.56% [at 46.1 µM] | 
COc1ccc(NC(=O)N2CCc3ccccc3C2)cc1 |  | inconclusive: 7.94 µM [activator, partial curve, poor fit]
Cc1cccc(C(=O)N2CCc3cc(CNC(=O)COc4ccc(Cl)cc4)ccc32)c1 |  | inconclusive: 28.2 µM [inhibitor, partial curve, poor fit]
COc1ccccc1NC(=S)NCc1ccc2c(c1)OCO2 |  | inconclusive: 23.1 µM [activator, single point]
CNc1cc(NS(=O)(=O)c2ccc(N)cc2)nc(NC)n1 |  | inconclusive: 4.61 µM [activator, partial curve, poor fit]
COCCNC(=O)C(c1ccc(C)cc1)N(C(=O)CCC(=O)Nc1ccccn1)c1ccc(F)cc1 (centres undefined) |  | inconclusive: 35.5 µM [inhibitor, partial curve, poor fit]
Cc1ccc(N=C2SC(C(=O)NCCc3ccccc3)CC(=O)N2C)cc1C (centres undefined) |  | inconclusive: 2 µM [inhibitor, partial curve, poor fit]
Cc1cccc(S(=O)(=O)NCC2CCCO2)c1 (centres undefined) |  | inconclusive: 2.91 µM [activator, partial curve, poor fit]
CCOc1cccc(C2c3[nH]c4ccccc4c3CCN2C(=O)CSc2ccccc2)c1 (centres undefined) |  | inconclusive: 11.2 µM [inhibitor, partial curve, poor fit]
COC(=O)c1cc2ccccn2c2c(C(=O)OC)c(C(=O)OC)cc1-2 | inactive: -28.3% | 
Cc1ccc(Sc2c(CO)c(-c3ccccc3)nn2C)cc1 |  | inconclusive: 20 µM [inhibitor, partial curve, poor fit]
CCc1cc(C(=O)N(C)CC(=O)Nc2c(Cl)cccc2Cl)sc1C |  | active: 8.91 µM
CSc1nc(-c2ccccc2)nn1S(=O)(=O)c1ccc(Cl)cc1 | inactive: -2.34% | 
COc1ccc(/C=C2\SC(=S)N(CCCCCC(=O)Nc3cc(C)on3)C2=O)cc1OC |  | inconclusive: 7.94 µM [inhibitor, single point]
O=c1[nH]c(=O)n(-c2ccccc2)c2c1C(C(F)(F)F)(C(F)(F)F)N=C(CCC1CCCCC1)N2 |  | active: 11.2 µM
COc1ccc2nc(SCC(=O)NCC(F)(F)F)[nH]c2c1 |  | inconclusive: 0.794 µM [inhibitor, single point]

Looked up above:
Potency, `O=c1[nH]c(=O)n(-c2ccccc2)c2c1C(C(F)(F)F)(C(F)(F)F)N=C(CCC1CCCCC1)N2` reads active: 11.2 µM
Potency, `COc1ccc(NC(=O)N2CCc3ccccc3C2)cc1` reads inconclusive: 7.94 µM [activator, partial curve, poor fit]
